# Key:
# [1] = pH of aqueous phase after extraction or stripping; conditions: 0.6 M sulfuric acid aqueous solution; volume, time and loaded organic mixture per example
# [2] = Stripping of lithium-loaded organic mixture with sulfuric acid aqueous solution: lithium; conditions: 0.6 M sulfuric acid aqueous solution; volume, time and loaded organic mixture per example
Compound,"pH, lithium-containing solution FC1 obtained from stripping [1]","cLi, lithium-containing solution FC1 obtained from stripping [2] [g/L]"
"4-octyloxy-2,5-dinitro-2-hydroxydibenzophenone [Example 20]",< 1,0.449
"O=C(c1ccccc1)c1cc([N+](=O)[O-])c(OCc2ccccc2)cc1O [Example 24, 4-benzyloxy-5-nitro-2-hydroxydibenzophenone]",< 1,1.752
